From US20030022275

Key:
[1] = target: NKX3.1 homeodomain (NKX3.1HD) (Mus musculus) (UniProt P97436); assay: EMSA; details: purified recombinant protein, protein details: N-terminal 6xHis (pQE-9, E. coli), label: 32P
[2] = target: NKX3.1 homeodomain (NKX3.1HD) (Homo sapiens) (UniProt Q99801); assay: EMSA; details: human protein stated to behave identically to murine, purified recombinant protein, protein details: N-terminal 6xHis (pQE-9, E. coli), label: 32P

ACACTAATTGGAGGC (double strand) [site 6 (Msx1 consensus, TAAT core)]
binding result ([1]; TAAT core, lower apparent affinity than CAAG site): binds more weakly | binding result [2]: binds more weakly

CACTGCCCAGTCAAGTGTTCTTGA (double strand) [C site (NKX2.1 consensus, CAAG core)]
binding result ([1]; preferential binding (CAAG core), 50 mM NaCl, 7.5 mM MgCl2, room temperature, poly-dIdC): binds

CTCTAATGGCTTTTTTCTC (double strand) [site BS2 (substituted 3' of TAAT core)]
binding result ([1]; contains TAAT core, text reports TAAT-core sites bound with lower affinity, not itemised): binds more weakly | binding result ([2]; TAAT-core site not itemised): binds more weakly

The comparison behind a weaker result is the experiment's own reference, which may not be listed here. For some assays here: Construct, isoform or probe ends are uncertain for at least one entry.
